PubChem BioAssay AID1671195 – Yale University, 2021

- Aim: 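Genes whose knockdown alters LDL uptake in liver cancer cells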 (primary screen)
- Cells: human Huh7 hepatoma cells
- Reagent: siRNA pool against human genes, 18 nM
- Time to read-out: about 2 to 2.5 days of knockdown, then 8 h LDL uptake
- Treatment: DiI-labelled LDL at 30 µg/ml for 8 h, in lipoprotein-deficient serum medium
- Detection: 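Per-cell DiI-LDL intensity by automated imaging; well means scaled to the plate median and given as a robust z-score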
- Direction: robust z-score: higher = more LDL uptake after knockdown
- Call rule: 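a gene counts as active if at least two replicate z-scores exceed ±2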
Here is one part, drawn at random, of about 22,000 reagents. In the full data, about 1,510 (6.9%) got an active call. 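Active includes knockdowns raising or lowering LDL uptake; positive z-scores mean more uptake, negative mean less.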 The numbers tell different reagents against one gene apart.

gene	reagent	robust z-score, replicate 1	robust z-score, replicate 2	robust z-score, replicate 3	call
NPAP1 (GeneID 23742)	1	1.76	0.333	2.28	inactive
IGFBP5 (GeneID 3488)	1	-0.123	0.00873	0.211	inactive
LOC389801 (retired record) (GeneID 389801)	1	1.35	1.92	0.583	inactive
CCL7 (GeneID 6354)	1	-1.17	-1.21	-0.785	inactive
OR52J3 (GeneID 119679)	1	0.103	-0.822	-0.255	inactive
TMEM156 (GeneID 80008)	1	1.43	2.17	1.52	inactive
WWP1 (GeneID 11059)	1	1.32	1.73	1.85	inactive
CNST (GeneID 163882)	1	0.599	0.893	1.35	inactive
AIFM1 (GeneID 9131)	1	0.209	0.00995	0.678	inactive
HS2ST1 (GeneID 9653)	1	-0.791	-0.543	-0.291	inactive
HTR1A (GeneID 3350)	1	0.198	-1.01	0.459	inactive
NEK10 (GeneID 152110)	1	0.638	1.2	0.133	inactive
NEK10 (GeneID 152110)	2	-1.13	-1.29	-1.4	inactive
LOC388655 (retired record) (GeneID 388655)	1	-1.45	-0.772	-1.29	inactive
HAGH (GeneID 3029)	1	-0.703	-1.32	-0.983	inactive
HOXA13 (GeneID 3209)	1	0.38	-0.0256	-0.493	inactive
LOC441751 (retired record) (GeneID 441751)	1	0.8	1.15	0.87	inactive
GGA3 (GeneID 23163)	1	0.632	0.262	0.676	inactive
SPAG17 (GeneID 200162)	1	-0.532	-0.0613	-0.041	inactive
BRAF (GeneID 673)	1	-0.48	-1.29	-0.745	inactive
ATM (GeneID 472)	1	-0.448	-0.875	-0.715	inactive
ATP6V1C1 (GeneID 528)	1	1.02	1.2	1.01	inactive
OTP (GeneID 23440)	1	0.0996	-0.851	-1.15	inactive
GET3 (GeneID 439)	1	-1.01	-0.946	-1.33	inactive
METTL21C (GeneID 196541)	1	1.67	1.38	0.371	inactive
ARSF (GeneID 416)	1	2.79	1.6	1.45	inactive
ZSCAN12 (GeneID 9753)	1	-0.252	0.046	-0.214	inactive
LOC441829 (retired record) (GeneID 441829)	1	-0.182	0.335	0.609	inactive
SLC30A6 (GeneID 55676)	1	1.04	2.46	0.43	inactive
SFRP5 (GeneID 6425)	1	0.366	0.376	-1.39	inactive
LOC401620 (retired record) (GeneID 401620)	1	0.945	0.335	0.359	inactive
OMA1 (GeneID 115209)	1	0.212	-0.353	1.14	inactive
USP32 (GeneID 84669)	1	-1.19	-1.6	-1.07	inactive
CA9 (GeneID 768)	1	0.453	0.322	0.159	inactive
PASD1 (GeneID 139135)	1	-0.00807	1.12	1.25	inactive
LORICRIN (GeneID 4014)	1	0.0154	-0.191	-0.731	inactive
CERKL (GeneID 375298)	1	0.622	0.455	0.979	inactive
RNF181 (GeneID 51255)	1	1.18	0.421	1.1	inactive
MYBPHL (GeneID 343263)	1	-0.844	-0.603	-0.6	inactive
TMEM11 (GeneID 8834)	1	-0.13	0.124	-0.286	inactive
PCOLCE2 (GeneID 26577)	1	1.32	0.5	1.15	inactive
TTC23L (GeneID 153657)	1	1.21	-0.516	0.942	inactive
ZNF737 (GeneID 100129842)	1	-0.379	-0.0547	-0.429	inactive
PLAAT4 (GeneID 5920)	1	-1.24	-1.56	-1.4	inactive
SACK1C (GeneID 128876)	1	0.629	0.597	-0.477	inactive
NEK6 (GeneID 10783)	1	-0.747	-1.17	-0.686	inactive
SPCS2 (GeneID 9789)	1	-1.46	-1.6	0.099	inactive
PANK4 (GeneID 55229)	1	-1.21	-0.602	-0.78	inactive
TMSB15B (GeneID 286527)	1	0.703	0.974	1.1	inactive
CCDC142 (GeneID 84865)	1	0.496	-0.00804	0.954	inactive
LOC389819 (retired record) (GeneID 389819)	1	-1.17	-1.3	-1.99	inactive
ACE2 (GeneID 59272)	1	-0.101	-0.605	-0.492	inactive
SLC27A3 (GeneID 11000)	1	-0.0617	-0.386	-1.38	inactive
ETFDH (GeneID 2110)	1	-1	-2.02	-0.666	inactive
ETS2 (GeneID 2114)	1	2.57	1.6	1.55	inactive
OR52B6 (GeneID 340980)	1	0.756	0.164	0.155	inactive
GLB1 (GeneID 2720)	1	-0.152	-0.224	-0.246	inactive
PSMC1 (GeneID 5700)	1	-0.0433	-0.538	-0.836	inactive
LOC729704 (GeneID 729704)	1	-0.457	-1.33	-0.664	inactive
TMC1 (GeneID 117531)	1	0.582	1.59	1.59	inactive
ALG3 (GeneID 10195)	1	0.536	0.0838	0.0124	inactive
OIT3 (GeneID 170392)	1	0.179	-0.297	0.518	inactive
HS6ST2 (GeneID 90161)	1	1.24	-0.0301	0.919	inactive
RACK1 (GeneID 10399)	1	1.16	2.31	2.91	active
ACVR1C (GeneID 130399)	1	-0.764	-0.503	-0.73	inactive
ORC6 (GeneID 23594)	1	-0.0491	0.0862	-0.185	inactive
LOC388481 (retired record) (GeneID 388481)	1	1.01	1.23	0.624	inactive
COX14 (GeneID 84987)	1	0.655	0.289	0.873	inactive

Records listed so far whose gene name begins with G or g (3):
gene	reagent	robust z-score, replicate 1	robust z-score, replicate 2	robust z-score, replicate 3	call
GGA3 (GeneID 23163)	1	0.632	0.262	0.676	inactive
GET3 (GeneID 439)	1	-1.01	-0.946	-1.33	inactive
GLB1 (GeneID 2720)	1	-0.152	-0.224	-0.246	inactive
